Here are results for 1 substance from PMC5841341.

By UniProt entry, the sequences of proteins in these tests, tags left out.
UniProt Q07917: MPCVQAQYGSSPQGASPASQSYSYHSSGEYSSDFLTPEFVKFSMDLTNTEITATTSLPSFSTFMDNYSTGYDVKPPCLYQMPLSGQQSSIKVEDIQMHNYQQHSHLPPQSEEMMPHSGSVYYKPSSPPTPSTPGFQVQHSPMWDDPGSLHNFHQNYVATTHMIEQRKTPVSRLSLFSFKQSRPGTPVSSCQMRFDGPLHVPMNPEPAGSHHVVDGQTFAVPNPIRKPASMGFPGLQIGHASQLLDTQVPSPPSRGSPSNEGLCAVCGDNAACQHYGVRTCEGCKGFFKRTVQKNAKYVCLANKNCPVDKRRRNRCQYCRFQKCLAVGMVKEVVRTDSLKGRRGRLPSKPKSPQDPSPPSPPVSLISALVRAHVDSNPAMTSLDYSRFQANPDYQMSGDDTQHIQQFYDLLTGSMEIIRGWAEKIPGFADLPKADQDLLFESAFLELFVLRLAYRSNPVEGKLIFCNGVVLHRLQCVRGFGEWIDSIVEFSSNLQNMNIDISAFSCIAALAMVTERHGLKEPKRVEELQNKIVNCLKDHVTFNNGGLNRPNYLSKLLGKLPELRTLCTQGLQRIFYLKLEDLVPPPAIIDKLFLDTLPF
UniProt P10361: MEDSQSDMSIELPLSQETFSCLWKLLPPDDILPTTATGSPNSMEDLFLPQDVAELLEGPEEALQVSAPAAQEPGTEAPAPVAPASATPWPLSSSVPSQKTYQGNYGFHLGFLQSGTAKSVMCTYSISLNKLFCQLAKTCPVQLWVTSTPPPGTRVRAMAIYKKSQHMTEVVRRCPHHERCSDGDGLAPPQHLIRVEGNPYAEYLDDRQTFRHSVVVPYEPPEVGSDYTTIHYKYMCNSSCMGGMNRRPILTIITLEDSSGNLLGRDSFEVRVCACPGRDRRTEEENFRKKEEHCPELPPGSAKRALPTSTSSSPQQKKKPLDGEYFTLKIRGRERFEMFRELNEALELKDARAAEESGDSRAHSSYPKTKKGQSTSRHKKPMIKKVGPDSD

No constants are given. Whether binding was seen depends on the method and setting. Binding seen in cells or lysates may run through a third protein. Some binding calls cover weakened binding; strength is not graded here.

The target in this assay is Nuclear receptor subfamily 4, group A, member 2 (NR4A2) (UniProt Q07917). The assay can be described thus: co-IP; H9c2 cells transfected with NR4A2 overexpression plasmid or negative control plasmid, then ischemia treatment (serum deprivation); lysate in IP lysis buffer incubated with protein A/G agarose beads and GFP antibody at 4 °C overnight; GFP and p53 detected by western blot. Background: In western blotting, separated proteins are transferred to a membrane and probed.

For the substance p53 (from UniProt P10361 1-391), the binding entry was “binds”.
